# The campaign covered roughly 390,000 compounds. About 610 (0.16%) were called active. This list was built around the results that the source calls inconclusive (neither active nor inactive); the mix of calls is not that of the screen. The call rests on the fitted dose curve; in most records, active means well fitted inhibition curve with a large enough effect; inconclusive means small, poorly fitted or top-dose-only effect, or effect the other way, or another doubt; inactive means no such curve, though single readings can be large or run the other way. Potencies beside an inconclusive call are fits to weak or partial responses and may not hold up.
# Test: Nrf2 qHTS screen for inhibitors: counterscreen for cytotoxicity
# Details: A549 ARE-Fluc cells, CellTiter-Fluor viability, 18-24 h; activity change, negative = cytotoxicity: at 46 µM (top of the series)
# In short: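 Cytotoxicity counterscreen: CellTiter-Fluor fluorescence was measured in A549 ARE_Fluc cells after 18-24 h of compound exposure in a concentration series. The subsequent BugLite luminescent read reports ARE-luciferase activity.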
# On the % scale 0 is the no-effect control and ±100 the full control effect; potency means the concentration at half of the fitted maximal effect.
Compound,Potency,"activity change, negative = cytotoxicity"
CN(c1ccc([N+](=O)[O-])cc1C(=O)Nc1ccccc1)C1CCCCC1,"inconclusive: 18.4 µM [falling, partial curve, poor fit]",
Cc1nnc(SCC(=O)N/N=C/c2ccc(-c3ccc(C)c(Cl)c3)o2)s1,"inconclusive: 32.6 µM [falling, partial curve, poor fit]",
CCN(CC)S(=O)(=O)c1ccc(C(=O)Nc2nc3c(Cl)cc(Cl)cc3s2)cc1,"inconclusive: 29.1 µM [falling, single point]",
COc1ccc2c(=O)c(-c3ccccc3)c(C)oc2c1,,inactive: 8.38%
Cn1cccc1/C=C(/C#N)C(N)=S,"inconclusive: 16.4 µM [falling, partial curve, poor fit]",
O=C(Nc1ccc(F)cc1F)N1CCCN(c2ccc([N+](=O)[O-])cn2)CC1,,inactive: -18%
O=c1c2ccccc2nc2n1CCC2,,inactive: -1.39%
COc1cccc(NC(=O)CSc2nccn(-c3ccc4c(c3)OCCO4)c2=O)c1,"inconclusive: 14.6 µM [falling, partial curve]",
COc1ccc(NS(=O)(=O)c2cc(Br)cc3c2N(C(C)=O)CC3)cc1,"inconclusive: 4.61 µM [falling, full curve]",
COc1ccc(CNC(=O)c2c(C)oc3c2C(=O)c2ccccc2C3=O)cc1,active: 4.61 µM,
Cc1cccc(NC(=S)N(CCN2CCOCC2)Cc2ccccc2F)c1,,inactive: -1.62%
COc1ccc(-c2nc3cc(NC(=O)Cc4ccc(OC)c(OC)c4)ccc3o2)cc1,"inconclusive: 29.1 µM [falling, single point]",
CS(=O)(=O)CCC(C(=O)Nc1ccc2c(c1)OCO2)N1Cc2ccccc2C1=O (configuration not stated),,inactive: -0.254%
CCOc1ccccc1Nc1nnc(SCc2nnc(-c3cc(OC)c(OC)c(OC)c3)o2)s1,"inconclusive: 29.1 µM [falling, partial curve, poor fit]",
O=C(c1nn(Cc2ccccc2)c(=O)c2ccccc12)N1CCc2ccccc2C1,"inconclusive: 13 µM [falling, partial curve, poor fit]",
O=S(=O)(c1ccccc1Cl)N1CCCC(c2nc(-c3cccnc3)no2)C1 (configuration not stated),,inactive: 4.27%
COc1ccc(/C=N/NC(=O)c2cccnc2)cc1COc1ccc([N+](=O)[O-])c(C)c1,"inconclusive: 18.4 µM [falling, partial curve, poor fit]",
O=C(CSC1=Nc2ccccc2N=C(c2ccc(F)cc2)C1)NCc1ccccc1,,inactive: 7.63%
Cc1ccc(-n2ncc(C(=O)NCCCN3CCN(c4cccc(Cl)c4)CC3)c2-n2cccc2)cc1,,inactive: 9.37%
Cc1ccc(NC(=O)COc2ccc(/C=N/NC(=O)CSCc3ccccc3)cc2)cc1,"inconclusive: 20.6 µM [falling, single point]",
O=C(c1ccco1)N1CCN(c2ccc([N+](=O)[O-])c(N3CCOCC3)c2)CC1,"inconclusive: 18.4 µM [falling, partial curve]",
COc1cccc(NC(=O)CSc2nc3n[nH]c(C)c3c(=N)n2-c2cccc(OC)c2)c1,"inconclusive: 29.1 µM [falling, partial curve, poor fit]",
C/C(=N\NC(=O)C1COc2ccccc2O1)c1ccccn1 (configuration not stated),"inconclusive: 20.6 µM [falling, partial curve]",

# In the list so far, these have an aryl thioether with sulfur outside any ring.
Compound,Potency,"activity change, negative = cytotoxicity"
Cc1nnc(SCC(=O)N/N=C/c2ccc(-c3ccc(C)c(Cl)c3)o2)s1,"inconclusive: 32.6 µM [falling, partial curve, poor fit]",
COc1cccc(NC(=O)CSc2nccn(-c3ccc4c(c3)OCCO4)c2=O)c1,"inconclusive: 14.6 µM [falling, partial curve]",
CCOc1ccccc1Nc1nnc(SCc2nnc(-c3cc(OC)c(OC)c(OC)c3)o2)s1,"inconclusive: 29.1 µM [falling, partial curve, poor fit]",
COc1cccc(NC(=O)CSc2nc3n[nH]c(C)c3c(=N)n2-c2cccc(OC)c2)c1,"inconclusive: 29.1 µM [falling, partial curve, poor fit]",

# (cont.)

Compound,Potency,"activity change, negative = cytotoxicity"
CCN(CC)CCCNc1nc2cc(OC)c(OC)cc2c2nc(-c3cccnc3)nn12,"inconclusive: 2.91 µM [activator, single point]",
CC(C)N1C(=O)S/C(=C\c2ccc(-c3ccc(Cl)c(C(=O)O)c3)o2)C1=O,"inconclusive: 23.1 µM [falling, partial curve, poor fit]",
COc1ccc(CNC(=O)Nc2cc(C)ccc2C)cc1,"inconclusive: 32.6 µM [activator, partial curve, poor fit]",
C/C(N)=C(/C#N)C(=O)CSc1nc2ccccc2c(=O)n1Cc1ccc(F)cc1,,inactive: 0.0405%
N#CCCNS(=O)(=O)c1ccc(C(=O)OCC2CCCCC2)cc1,"inconclusive: 9.2 µM [activator, partial curve]",
CN(Cc1nc(-c2ccc(Cl)cc2)no1)C(=O)c1ccco1,"inconclusive: 20.6 µM [falling, single point]",
CN(CC(=O)Nc1ccccc1N1CCOCC1)S(=O)(=O)c1ccc(Cl)cc1,,inactive: -1.29%
CC(C(=O)NC1CCCC1)N(Cc1ccco1)C(=O)c1snc(C(=O)NC2CCCC2)c1N (configuration not stated),"inconclusive: 23.1 µM [activator, single point]",
COc1ccc(N2CCN(C(c3cccs3)C(C)NS(=O)(=O)c3ccccc3)CC2)cc1 (configuration not stated),,inactive: -4.33%
COc1ccc(CCNCc2c(C(=O)O)c(C)n(Cc3c(F)cccc3Cl)c2C)cc1OC,,inactive: 6.57%
Cc1ccc(-c2cc(-c3ccc4c(c3)NC(=O)CO4)nc3c2COc2ccccc2-3)cc1,,inactive: -0.982%
Cc1cc(N2C(=O)C3CC=CCC3C2=O)cc(C)c1Br (configuration not stated),"inconclusive: 25.9 µM [falling, partial curve, poor fit]",
COc1ccc(C(=O)Nc2cc3c(oc2=O)CCCC3=O)cc1,,inactive: 0.105%
Cc1cc(C)cc(OCC(O)CN2CCC(CN3C(=O)c4cccc5cccc(c45)C3=O)CC2)c1 (configuration not stated),"inconclusive: 20.6 µM [falling, single point]",
O=C(c1cnn2c(C(F)F)cc(-c3ccccc3)nc12)N1CCc2ccccc2C1,"inconclusive: 18.4 µM [falling, single point]",
COc1ccc2[nH]c3c(N4CCC(O)(c5cccc(C(F)(F)F)c5)CC4)ncnc3c2c1,"inconclusive: 20.6 µM [falling, single point]",
CCc1ccc(NC(=O)CCCNC(=O)Cn2cnc3sc(C)c(C)c3c2=O)cc1,"inconclusive: 29.1 µM [falling, partial curve, poor fit]",
CCN1CCN(Cc2ccc(NC(=O)c3cc(NC(=O)c4nccnc4N)cc(OC)c3)cc2C(F)(F)F)CC1,"inconclusive: 29.1 µM [activator, partial curve, poor fit]",
CN(C(=O)COC(=O)c1nc(Cl)c(Cl)c(Cl)c1Cl)C1CCS(=O)(=O)C1 (configuration not stated),"inconclusive: 29.1 µM [falling, single point]",
CCc1ccc(N(C(=O)c2ccoc2C)C(C(=O)NC2CCCC2)c2ccc(OC)cc2)cc1 (configuration not stated),"inconclusive: 18.4 µM [falling, partial curve, poor fit]",
O=C(NC1(C(F)(F)F)C(=O)Nc2c1c(=O)[nH]c(=O)n2-c1ccc(F)cc1)c1ccccc1 (configuration not stated),,inactive: -3.17%
COc1ccc(-n2cc(C(=O)OCc3ccc(F)c(F)c3)c3ccccc3c2=O)cc1,,inactive: 15.5%
CC(C)(C)n1nnnc1C(c1cccs1)N1CCN(c2ccccc2)CC1 (configuration not stated),"inconclusive: 29.1 µM [falling, single point]",

Compound,Potency,"activity change, negative = cytotoxicity"
CC1CCC(NC(=O)c2ccc3c(c2)N(Cc2ccccc2F)C(=O)c2ccccc2S3=O)CC1 (configuration not stated),,inactive: -9.36%
CN1CCN(C(=O)CCN2C(=O)S/C(=C/c3ccc(Cl)cc3)C2=O)CC1,"inconclusive: 20.6 µM [falling, partial curve, poor fit]",
CCOc1ccccc1OCCn1nnc2ccccc21,,inactive: -6.26%
COc1ccc(-n2cccc2/C=C2/NC(=O)N(c3cccc(Cl)c3)C2=O)cc1,,inactive: -1.25%
CCOc1ccc(C(C)=O)cc1N1C(=O)C2C3C=CC(O3)C2C1=O (configuration not stated),,inactive: -2.04%
CC(C)Cc1nnc(NC(=O)CSc2nc(O)c(-c3ccccc3)c(=O)[nH]2)s1,,inactive: -0.814%
Cc1cccn2c(=O)c(C=NCc3ccccc3)c(NCCO)nc12,,inactive: 1.84%
COc1ccc(NC(=O)c2cc([N+](=O)[O-])ccc2N2CCCC2)cc1,"inconclusive: 16.4 µM [falling, partial curve, poor fit]",
COc1ccc(N2CCN(C(=O)CN3CCN(c4nc(-c5ccc(F)cc5)cs4)CC3)CC2)cc1,"inconclusive: 20.6 µM [falling, partial curve]",
CCCN(CC(=O)Nc1cc(Cl)cc(Cl)c1)CC(=O)Nc1ccc(F)c(F)c1F,"inconclusive: 23.1 µM [falling, single point]",
CCOC(=O)C1CCN(c2ncnc3c2cnn3-c2ccccc2)CC1,,inactive: -4.19%
COc1cccc(N2CC(O)Cn3c2nc2c3c(=O)[nH]c(=O)n2C)c1 (configuration not stated),"inconclusive: 0.103 µM [activator, full curve, poor fit]",
CCCCN1Cc2ccccc2Oc2cc(Br)ccc2S1(=O)=O,"inconclusive: 11.6 µM [activator, partial curve, poor fit]",
CN(C)/C=C/c1oc2ccc(O)cc2c1[N+](=O)[O-],active: 16.4 µM,
CN(Cc1cncn1C)c1ncnc2ccc(-c3ccc4c(c3)OCO4)cc12,"inconclusive: 20.6 µM [activator, partial curve, poor fit]",
COc1cccc(-c2ccc(SCC(=O)N3CCN(c4ccccc4)CC3)nn2)c1,"inconclusive: 23.1 µM [falling, single point]",
COc1cc2nc(CN3CCC(C(O)(c4ccccc4)c4ccccc4)CC3)[nH]c(=O)c2cc1OC,"inconclusive: 25.9 µM [falling, partial curve, poor fit]",
CCCn1c(SCc2nc(-c3cc(OC)ccc3OC)no2)nnc1-c1ccc(Cl)cc1,"inconclusive: 18.4 µM [falling, partial curve, poor fit]",
CC(OCC(O)CN(C)CCOc1ccccc1)c1ccc(Cl)cc1 (configuration not stated),"inconclusive: 18.4 µM [activator, single point]",
COc1ccc(Cl)cc1NC(=O)CNc1ccccc1CN(C)C1CCCCC1,"inconclusive: 16.4 µM [falling, single point]",
CCOC(=O)/C(C#N)=C/C1=C(N2CCCC2)CC(C)(C)OC1,"inconclusive: 23.1 µM [falling, single point]",
